The supplement of paper PMC10849652
The other results are listed elsewhere or left out.

The chains behind the UniProt entries cited, without tags or fusion partners. Where a name states a change or a piece, a line headed by the entry shows the natural chain unless it says otherwise.
UniProt Q96GV9: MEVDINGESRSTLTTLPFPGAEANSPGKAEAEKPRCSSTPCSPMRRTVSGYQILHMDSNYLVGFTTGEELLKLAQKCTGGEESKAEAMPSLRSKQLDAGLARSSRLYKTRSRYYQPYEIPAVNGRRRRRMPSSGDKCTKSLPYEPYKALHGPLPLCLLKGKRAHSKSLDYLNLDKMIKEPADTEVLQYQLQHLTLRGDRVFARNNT
UniProt Q8NDD1: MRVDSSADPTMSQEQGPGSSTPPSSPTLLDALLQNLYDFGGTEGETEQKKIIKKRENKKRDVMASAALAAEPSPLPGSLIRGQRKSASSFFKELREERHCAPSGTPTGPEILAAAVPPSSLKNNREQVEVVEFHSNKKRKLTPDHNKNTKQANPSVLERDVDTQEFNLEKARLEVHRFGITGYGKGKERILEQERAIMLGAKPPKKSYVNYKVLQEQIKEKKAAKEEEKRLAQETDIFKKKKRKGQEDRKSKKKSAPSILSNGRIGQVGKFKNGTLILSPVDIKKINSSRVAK
UniProt P04003: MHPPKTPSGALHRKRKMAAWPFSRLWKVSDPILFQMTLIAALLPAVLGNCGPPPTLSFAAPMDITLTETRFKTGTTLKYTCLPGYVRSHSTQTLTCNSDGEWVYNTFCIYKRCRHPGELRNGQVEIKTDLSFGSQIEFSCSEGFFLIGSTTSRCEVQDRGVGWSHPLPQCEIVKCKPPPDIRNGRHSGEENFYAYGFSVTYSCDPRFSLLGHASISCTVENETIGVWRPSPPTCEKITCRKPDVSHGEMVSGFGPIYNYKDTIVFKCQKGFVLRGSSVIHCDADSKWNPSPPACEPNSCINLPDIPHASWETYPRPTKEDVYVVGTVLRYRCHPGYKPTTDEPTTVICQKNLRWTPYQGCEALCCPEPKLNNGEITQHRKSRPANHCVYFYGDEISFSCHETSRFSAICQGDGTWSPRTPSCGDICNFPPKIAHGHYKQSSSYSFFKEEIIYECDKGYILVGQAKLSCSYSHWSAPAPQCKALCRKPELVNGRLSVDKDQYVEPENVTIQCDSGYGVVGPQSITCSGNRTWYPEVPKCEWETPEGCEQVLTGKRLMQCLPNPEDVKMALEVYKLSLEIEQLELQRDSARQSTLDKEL
UniProt P0DMB2: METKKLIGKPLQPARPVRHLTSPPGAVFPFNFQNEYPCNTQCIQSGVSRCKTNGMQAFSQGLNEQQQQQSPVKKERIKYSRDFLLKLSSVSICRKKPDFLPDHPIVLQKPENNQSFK
UniProt Q96B23: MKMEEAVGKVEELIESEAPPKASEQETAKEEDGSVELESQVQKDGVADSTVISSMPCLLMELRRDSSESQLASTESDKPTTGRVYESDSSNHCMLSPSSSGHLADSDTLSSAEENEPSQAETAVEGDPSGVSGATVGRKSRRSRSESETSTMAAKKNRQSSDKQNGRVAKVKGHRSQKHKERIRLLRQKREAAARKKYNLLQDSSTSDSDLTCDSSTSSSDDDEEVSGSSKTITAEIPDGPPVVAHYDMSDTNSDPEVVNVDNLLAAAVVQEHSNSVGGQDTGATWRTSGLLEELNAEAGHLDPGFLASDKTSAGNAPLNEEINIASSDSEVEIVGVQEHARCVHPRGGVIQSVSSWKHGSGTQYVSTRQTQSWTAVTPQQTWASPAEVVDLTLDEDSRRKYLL
UniProt Q9Y426: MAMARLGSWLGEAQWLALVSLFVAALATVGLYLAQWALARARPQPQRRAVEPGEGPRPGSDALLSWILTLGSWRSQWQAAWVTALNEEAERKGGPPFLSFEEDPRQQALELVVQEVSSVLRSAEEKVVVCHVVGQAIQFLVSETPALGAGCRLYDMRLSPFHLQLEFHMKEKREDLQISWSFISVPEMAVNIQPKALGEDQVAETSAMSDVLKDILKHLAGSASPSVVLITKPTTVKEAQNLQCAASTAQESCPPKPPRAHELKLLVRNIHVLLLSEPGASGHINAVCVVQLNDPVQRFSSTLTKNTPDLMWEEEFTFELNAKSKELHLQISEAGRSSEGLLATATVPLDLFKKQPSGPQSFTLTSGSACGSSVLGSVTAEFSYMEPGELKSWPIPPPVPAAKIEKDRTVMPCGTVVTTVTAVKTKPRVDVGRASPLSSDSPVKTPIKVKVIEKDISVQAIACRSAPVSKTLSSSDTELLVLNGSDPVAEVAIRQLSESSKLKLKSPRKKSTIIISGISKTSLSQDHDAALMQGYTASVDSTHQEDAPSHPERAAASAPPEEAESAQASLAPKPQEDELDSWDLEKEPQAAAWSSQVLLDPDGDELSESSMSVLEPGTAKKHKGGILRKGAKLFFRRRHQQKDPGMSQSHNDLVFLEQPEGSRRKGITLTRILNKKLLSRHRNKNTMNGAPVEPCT
UniProt Q5SQH8: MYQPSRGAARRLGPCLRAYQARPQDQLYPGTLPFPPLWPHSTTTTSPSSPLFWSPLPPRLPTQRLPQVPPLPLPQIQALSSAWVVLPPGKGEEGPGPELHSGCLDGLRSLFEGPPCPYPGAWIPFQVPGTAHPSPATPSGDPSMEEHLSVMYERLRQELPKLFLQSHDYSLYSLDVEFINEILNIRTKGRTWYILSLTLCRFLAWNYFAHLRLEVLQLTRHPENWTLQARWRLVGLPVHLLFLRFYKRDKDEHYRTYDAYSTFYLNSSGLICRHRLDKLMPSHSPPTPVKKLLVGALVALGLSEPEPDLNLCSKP
UniProt Q7Z4R8: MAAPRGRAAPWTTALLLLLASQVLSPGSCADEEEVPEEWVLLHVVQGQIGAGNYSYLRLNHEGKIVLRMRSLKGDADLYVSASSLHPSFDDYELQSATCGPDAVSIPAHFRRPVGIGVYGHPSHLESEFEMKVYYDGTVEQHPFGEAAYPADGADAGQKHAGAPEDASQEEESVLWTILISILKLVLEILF
UniProt Q7Z7L8: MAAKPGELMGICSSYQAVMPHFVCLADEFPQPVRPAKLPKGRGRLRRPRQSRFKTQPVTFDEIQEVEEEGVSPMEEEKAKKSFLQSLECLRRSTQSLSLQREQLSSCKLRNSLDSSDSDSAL
UniProt Q32NC0: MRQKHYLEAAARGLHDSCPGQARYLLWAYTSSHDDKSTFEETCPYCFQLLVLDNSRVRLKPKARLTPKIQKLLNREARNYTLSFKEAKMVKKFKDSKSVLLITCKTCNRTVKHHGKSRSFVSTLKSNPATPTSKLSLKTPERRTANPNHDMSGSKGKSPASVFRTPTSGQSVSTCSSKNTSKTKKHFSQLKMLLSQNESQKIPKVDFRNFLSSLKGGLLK
UniProt Q9NQ89: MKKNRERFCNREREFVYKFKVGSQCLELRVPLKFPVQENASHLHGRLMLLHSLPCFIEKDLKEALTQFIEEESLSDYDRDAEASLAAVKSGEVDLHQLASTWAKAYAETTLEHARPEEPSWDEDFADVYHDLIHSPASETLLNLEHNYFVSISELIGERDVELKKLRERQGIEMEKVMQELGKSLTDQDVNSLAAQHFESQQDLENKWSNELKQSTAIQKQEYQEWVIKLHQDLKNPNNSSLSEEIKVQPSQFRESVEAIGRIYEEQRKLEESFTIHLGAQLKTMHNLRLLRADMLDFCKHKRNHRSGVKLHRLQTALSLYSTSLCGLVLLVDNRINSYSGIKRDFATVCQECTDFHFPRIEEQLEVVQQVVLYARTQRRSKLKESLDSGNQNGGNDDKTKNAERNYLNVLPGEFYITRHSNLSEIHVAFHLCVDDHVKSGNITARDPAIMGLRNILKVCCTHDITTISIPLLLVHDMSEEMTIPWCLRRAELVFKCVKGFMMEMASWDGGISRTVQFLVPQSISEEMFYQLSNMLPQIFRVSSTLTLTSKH
UniProt P0C0L4: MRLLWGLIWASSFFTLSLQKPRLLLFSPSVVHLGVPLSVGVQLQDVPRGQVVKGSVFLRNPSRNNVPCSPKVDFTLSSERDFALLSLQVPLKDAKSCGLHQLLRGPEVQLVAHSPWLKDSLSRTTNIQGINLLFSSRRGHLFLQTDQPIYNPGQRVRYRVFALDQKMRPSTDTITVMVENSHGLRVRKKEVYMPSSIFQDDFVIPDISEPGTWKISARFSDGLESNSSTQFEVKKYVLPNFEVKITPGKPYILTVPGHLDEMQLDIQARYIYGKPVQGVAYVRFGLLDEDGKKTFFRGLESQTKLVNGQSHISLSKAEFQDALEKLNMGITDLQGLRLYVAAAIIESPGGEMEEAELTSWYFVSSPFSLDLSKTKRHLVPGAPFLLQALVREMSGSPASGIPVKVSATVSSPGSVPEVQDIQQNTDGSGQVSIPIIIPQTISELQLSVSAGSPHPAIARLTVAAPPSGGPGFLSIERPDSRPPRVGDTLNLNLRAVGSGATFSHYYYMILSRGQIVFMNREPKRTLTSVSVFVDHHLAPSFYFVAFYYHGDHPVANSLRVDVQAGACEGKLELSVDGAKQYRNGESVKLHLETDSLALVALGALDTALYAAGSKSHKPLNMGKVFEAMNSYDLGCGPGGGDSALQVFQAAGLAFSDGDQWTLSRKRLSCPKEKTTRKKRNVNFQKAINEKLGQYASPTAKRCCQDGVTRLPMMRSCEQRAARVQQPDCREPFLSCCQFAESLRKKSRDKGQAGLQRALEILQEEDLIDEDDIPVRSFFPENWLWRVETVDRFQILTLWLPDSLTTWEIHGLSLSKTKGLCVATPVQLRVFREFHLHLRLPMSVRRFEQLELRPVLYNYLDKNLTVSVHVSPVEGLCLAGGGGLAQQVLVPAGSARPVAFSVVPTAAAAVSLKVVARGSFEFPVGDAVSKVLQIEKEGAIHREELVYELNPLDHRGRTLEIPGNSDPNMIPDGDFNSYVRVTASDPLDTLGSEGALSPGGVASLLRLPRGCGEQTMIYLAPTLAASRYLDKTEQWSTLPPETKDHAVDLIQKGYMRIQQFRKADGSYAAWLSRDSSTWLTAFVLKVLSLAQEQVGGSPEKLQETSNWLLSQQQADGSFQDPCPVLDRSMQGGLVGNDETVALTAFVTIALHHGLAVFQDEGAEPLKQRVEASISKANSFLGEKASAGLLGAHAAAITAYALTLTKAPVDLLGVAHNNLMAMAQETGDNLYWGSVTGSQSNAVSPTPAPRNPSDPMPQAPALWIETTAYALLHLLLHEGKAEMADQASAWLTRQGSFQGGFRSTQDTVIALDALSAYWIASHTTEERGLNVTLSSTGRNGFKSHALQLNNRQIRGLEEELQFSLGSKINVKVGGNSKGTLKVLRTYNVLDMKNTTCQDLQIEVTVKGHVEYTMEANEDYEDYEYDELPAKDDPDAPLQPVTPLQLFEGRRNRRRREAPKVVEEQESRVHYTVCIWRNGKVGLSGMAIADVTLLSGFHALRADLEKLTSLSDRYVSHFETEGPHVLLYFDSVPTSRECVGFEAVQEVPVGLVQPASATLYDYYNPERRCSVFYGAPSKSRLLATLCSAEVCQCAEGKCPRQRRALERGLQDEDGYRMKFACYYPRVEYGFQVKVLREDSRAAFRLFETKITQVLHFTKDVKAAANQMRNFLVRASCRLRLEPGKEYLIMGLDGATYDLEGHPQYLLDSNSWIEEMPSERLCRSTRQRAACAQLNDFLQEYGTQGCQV
UniProt Q6PH81: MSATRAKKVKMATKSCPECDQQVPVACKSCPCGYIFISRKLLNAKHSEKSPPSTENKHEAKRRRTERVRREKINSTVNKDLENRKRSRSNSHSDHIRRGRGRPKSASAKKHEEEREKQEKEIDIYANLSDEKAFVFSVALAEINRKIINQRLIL

What was measured:
Assay in all cases: log2 fold change, soluble protein after heating vs DMSO (PISA); higher = thermal stabilisation; K562 lysate, 10 uM; active = over 0.2 and 3.5 SD of the protein, either way, in both replicates (recomputed)
ibrutinib = compound: C=CC(=O)N1CCC[C@@H](n2nc(-c3ccc(Oc4ccccc4)cc3)c3c(N)ncnc32)C1 [ibrutinib]
Outline: (§1)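 Following dounce homogenisation of K562 pellets in PBS pH 7.4 with 1 mM MgCl2, crude extract at 1 mg/mL protein was incubated for 30 min with 10 μM compound. Aliquots were then heated for 3 min over 48°C-58°C and pooled, NP-40 was added to 0.5% at 4°C, and soluble protein was recovered as the supernatant at 21,000xg for 90 min. Channel-sum-equalised TMTpro 16plex LC-MS/MS quantified this protein. Each value, from duplicates, is a log-two fold change in thermal stability relative to solvent controls.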

ralimetinib = compound: CC(C)(C)Cn1c(N)nc2ccc(-c3[nH]c(C(C)(C)C)nc3-c3ccc(F)cc3)nc21 [ralimetinib]
Outline: as §1

[1] = compound: CC(C)(O)CC(=O)NCCn1ccc2ncnc(Nc3ccc(Oc4cccc(C(F)(F)F)c4)c(Cl)c3)c21
Outline: as §1

[2] = compound: CC(C)C1=C2N=C(C=C(N2N=C1)NCC3=CC=CC=C3)NCCCCCCN
Outline: as §1

[3] = compound: CC1=C(C(CC(=O)N1)C2=CC=C(C=C2)C(F)(F)F)C(=O)NC3=C(C=C4C(=C3)C=NN4)F
Outline: as §1

[4] = compound: CC1=C(C2=C(C=C1)C(=O)C3=CC=CC=C3N2CCCN)C
Outline: as §1

[5] = compound: CC1=C(C=C(C=C1)NC(=O)C2=CC(=CC=C2)C(C)(C)C#N)NC3=CC4=C(C=C3)N=CN(C4=O)C
Outline: as §1

[6] = compound: CC1=C(C=C(C=C1)NC(=O)C2=CC(=CC=C2)N(C)C)NC(=O)C3=CC=C(C=C3)O
Outline: as §1

vemurafenib = compound: CCCS(=O)(=O)Nc1ccc(F)c(C(=O)c2c[nH]c3ncc(-c4ccc(Cl)cc4)cc23)c1F [vemurafenib]
Outline: as §1

barasertib = compound: CCN(CCCOc1ccc2c(Nc3cc(CC(=O)Nc4cccc(F)c4)[nH]n3)ncnc2c1)CCOP(=O)(O)O [barasertib]
Outline: as §1

[7] = compound: CC[C@@H]1C(=O)N(C)c2cnc(Nc3ccc(C(=O)NC4CCN(C)CC4)cc3OC)nc2N1C1CCCC1
Outline: as §1

[8] = compound: CCn1c(C(=O)N(C2CC2)C2CC2)cc2c3c(ncn3C)c(Nc3cc(C)n(C)n3)nc21
Outline: as §1

[9] = compound: CCn1cc(-c2ccnc3[nH]c(-c4cccc(CN(C)C)c4)cc23)c(-c2ccc(NC(=O)N(C)C)cc2)n1
Outline: as §1

[10] = compound: CN1CCC(CNc2ccc3ncc(-c4cccc(OC(F)(F)F)c4)n3n2)CC1
Outline: as §1

saracatinib = compound: CN1CCN(CCOc2cc(OC3CCOCC3)c3c(Nc4c(Cl)ccc5c4OCO5)ncnc3c2)CC1 [saracatinib]
Outline: as §1

sotrastaurin = compound: CN1CCN(c2nc(C3=C(c4c[nH]c5ccccc45)C(=O)NC3=O)c3ccccc3n2)CC1 [sotrastaurin]
Outline: as §1

[11] = compound: CC(=O)c1cnc2ccc(-c3cc(Cl)c(O)c(Cl)c3)nc2c1N[C@H]1CC[C@H](CN(C)C)CC1
Outline: as §1

[12] = compound: CC1=CC=C(C=C1)SC2=C3C=C(SC3=CN=C2)C(=O)N
Outline: as §1

[13] = compound: CCCS(=O)(=O)Nc1ccc(F)c(C(=O)c2c[nH]c3ncc(Cl)cc23)c1F
Outline: as §1

volasertib = compound: CC[C@@H]1C(=O)N(C)c2cnc(Nc3ccc(C(=O)N[C@H]4CC[C@H](N5CCN(CC6CC6)CC5)CC4)cc3OC)nc2N1C(C)C [volasertib]
Outline: as §1

Measured: log2 fold change

C5orf30 (UniProt Q96GV9)
inactive: ibrutinib -0.003 | ralimetinib -0.041 | [1] -0.036 | [2] -0.128 | [3] -0.14 | [4] 0.007 | [5] -0.045 | [6] -0.061 | vemurafenib 0.013 | barasertib 0.08 | [7] 0.091 | [8] 0.036 | [9] 0.003 | [10] -0.05 | saracatinib -0.025 | sotrastaurin 0.034

C1orf131 isoform 5 (UniProt Q8NDD1)
inactive: [11] 0.041 | ralimetinib 0.06 | [1] -0.056 | [2] 0.028 | [3] -0.016 | [4] -0.071 | [5] 0.08 | [6] 0.025 | [12] -0.043 | vemurafenib 0.034 | [13] 0.026 | [7] 0.148 | volasertib -0.029 | [8] -0.042 | [9] -0.242 | [10] 0.095 | saracatinib -0.009 | sotrastaurin 0.017

C4BPA (UniProt P04003)
inactive: [11] -0.037 | ralimetinib -0.049 | [1] 0.001 | [2] 0.001 | [3] 0.019 | [4] 0.055 | [5] -0.017 | [6] 0.054 | [12] -0.078 | vemurafenib -0.156 | [13] 0.045 | volasertib -0.059 | [8] -0.042 | [9] -0.069 | [10] 0.06 | saracatinib 0.168 | sotrastaurin -0.014

C8orf88 (UniProt P0DMB2)
inactive: ibrutinib -0.004 | ralimetinib 0.06 | [1] 0.047 | [2] -0.05 | [4] 0.006 | [5] 0.052 | [6] 0.022 | barasertib -0.053 | [8] 0.027 | [9] 0.084 | [10] 0.011 | saracatinib 0.051 | sotrastaurin -0.015

C18orf25 isoform 2 (UniProt Q96B23)
inactive: ibrutinib 0.126 | [11] 0.1 | ralimetinib -0.065 | [1] -0.027 | [2] -0.013 | [3] -0.088 | [4] 0.015 | [6] -0.017 | [12] -0.076 | vemurafenib -0.01 | [13] 0.027 | barasertib -0.034 | [7] 0.067 | volasertib -0.021 | [8] -0.047 | [9] -0.234 | [10] 0.037 | saracatinib -0.037

C2CD2 (UniProt Q9Y426)
inactive: ibrutinib 0.063 | ralimetinib 0.04 | [1] -0.117 | [2] -0.08 | [4] -0.041 | [5] -0.033 | [6] -0.068 | barasertib 0.114 | [7] -0.064 | [8] -0.004 | [9] 0.036 | [10] -0.11 | saracatinib -0.006 | sotrastaurin 0.083

C6orf136 isoform 4 (UniProt Q5SQH8)
inactive: [11] 0.016 | ralimetinib 0 | [1] 0.016 | [2] -0.181 | [4] -0.226 | [6] 0.028 | [12] 0.12 | vemurafenib -0.228 | [13] -0.114 | [7] 0.178 | volasertib -0.031 | [8] 0.078 | saracatinib -0.103

C6orf120 (UniProt Q7Z4R8)
inactive: ibrutinib 0.013 | [11] -0.017 | [2] -0.003 | [4] 0.015 | [12] 0.126 | [13] -0.127 | barasertib 0.096 | volasertib 0.051 | [9] -0.005 | [10] 0.049 | saracatinib 0.004

C11orf96 (UniProt Q7Z7L8)
inactive: ibrutinib 0.097 | [11] 0.111 | ralimetinib 0.1 | [1] 0 | [2] -0.057 | [3] -0.119 | [4] -0.027 | [5] -0.015 | [6] 0.062 | [12] -0.007 | [13] 0.122 | barasertib -0.035 | volasertib 0.061 | [8] 0.056 | [9] -0.107 | [10] 0.035 | saracatinib -0.002 | sotrastaurin -0.043

C18orf21 (UniProt Q32NC0)
inactive: ibrutinib -0.025 | [11] 0.115 | ralimetinib 0.053 | [1] -0.092 | [2] 0.099 | [3] -0.004 | [4] -0.09 | [5] -0.045 | [6] 0.102 | [12] 0.109 | [13] 0.054 | barasertib -0.031 | volasertib 0.065 | [8] 0.006 | [9] -0.06 | [10] 0.015 | saracatinib -0.025 | sotrastaurin 0.015

C12orf4 (UniProt Q9NQ89)
inactive: ibrutinib -0.051 | [11] -0.089 | [2] 0.146 | [5] -0.31 | [12] -0.091 | [13] 0 | barasertib 0.112 | [7] -0.124 | volasertib -0.02 | sotrastaurin 0.072

C4A (UniProt P0C0L4)
inactive: ibrutinib -0.024 | [11] 0.025 | ralimetinib 0.041 | [1] -0.037 | [2] 0.017 | [4] -0.058 | [5] 0.065 | [6] 0.029 | [12] -0.071 | vemurafenib -0.205 | [13] 0.162 | barasertib 0.01 | [7] 0.066 | volasertib -0.096 | [8] -0.047 | [9] -0.037 | [10] 0.074 | saracatinib 0.053 | sotrastaurin -0.026

C16orf87 (UniProt Q6PH81)
inactive: ibrutinib 0.068 | [11] 0.034 | ralimetinib 0.018 | [1] 0.042 | [4] 0.012 | [5] 0.067 | [6] 0.104 | [12] 0.092 | vemurafenib 0.032 | [13] 0.11 | barasertib -0.054 | [7] 0.037 | volasertib 0.004 | [8] 0.062 | [9] 0.417 | [10] -0.048 | saracatinib 0.139 | sotrastaurin -0.046

CAMKMT (UniProt Q7Z624)
inactive: [11] 0.001 | ralimetinib 0.064 | [1] 0.028 | [3] -0.03 | [4] -0.151 | [6] 0.008 | [12] -0.169 | [13] 0.02 | volasertib 0.111 | [8] 0.043 | saracatinib 0.005
